Source: patent publication US11357864B2 (priority 2016, dated 2022)

Test: general procedure: solution-phase peptide synthesis; HATU/DIEA
Details: coupling step, HCl salt

## Boc-Val-Dil-Dap-Phe-azidopropylsulfonamide (Ex. 3 step 5)
  step yield: 65% yield
